Measured values from PubChem BioAssay AID1347076 (National Center for Advancing Translational Sciences (NCATS), 2019).
Among all 400,000 compounds or so, about 13,000 (3.2%) were called active. Inconclusive results, whose numbers are uncertain, are shown with a selection of clear calls. The call rests on the fitted dose curve; in most records, active means well fitted cell-killing curve with a large enough effect; inconclusive means small, poorly fitted or top-dose-only effect, or effect the other way; inactive means flat fitted curve, though single readings scatter. Potencies beside an inconclusive call are fits to weak or partial responses and may not hold up.

Experiment: qHTS assay for MDR1-selective chemotherapeutics: Primary screen using the drug-selected MDR subline cells KB-V1; further: nearly all actives have a fitted effect of over 60% in size
Conditions: KB-V1 MDR cells viability, CellTiter-Glo, 72 h; activity change, negative = cytotoxicity: at 46.1 µM (top of the series)
Procedure, shortened: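 Cells of the MDR subline KB-V1 are plated, dosed with compound at multiple concentrations, and incubated 72 h at 37 degrees C; CellTiter-Glo is then added and luminescence read after 10 min.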
On the % scale 0 is the no-effect control and ±100 the full control effect; potency means the concentration at half of the fitted maximal effect.

SMILES	activity change, negative = cytotoxicity	Potency
CC(=O)Nc1ccc(C(=O)N2CCCC(c3cc(C(=O)Nc4ccccc4)no3)C2)cc1 (stereo not drawn)	inactive: 13%	–
COc1ccc(OC)c(N(CC(=O)NN=C2CCN(C)CC2)S(=O)(=O)c2ccccc2)c1	inactive: 15.8%	–
O=C(NCCc1ccccc1)c1ccc2c(c1)S(=O)(=O)c1cc(Cl)ccc1C2=O	–	inconclusive: 29.1 µM [cytotoxic, partial curve, poor fit]
COc1ccc(CNCCC(c2ccccc2)c2ccc(OC(C)C)cc2)cc1OC (stereo not drawn)	–	inconclusive: 32.6 µM [cytotoxic, single point]
O=C(CNC(=O)c1nc[nH]c1C(=O)N1CCNCC1)OCc1ccccc1	inactive: 29.5%	–
O=S(=O)(CCNCc1ccccc1)NC1CCCCC1	–	inconclusive: 0.0046 µM [rising, full curve, poor fit]
C=CC[C@@H](CC(=O)N(CCO)Cc1ccccc1)C(=O)N[C@H](COC(=O)[C@@H](CC=C)Cc1ccc(F)cc1)Cc1ccccc1	–	inconclusive: 20.6 µM [cytotoxic, single point]
COc1ccc(C(=O)COC(=O)c2cncc(Br)c2)cc1	inactive: 21.2%	–
CCN1CCN(c2ccc(S(=O)(=O)N3CCCCC3)cc2NC(=O)c2cccc(OC(F)F)c2)CC1	–	inconclusive: 5.8 µM [cytotoxic, partial curve]
Clc1ccc(CN=C(Nc2ccccc2)NC2CCCCC2)cc1	–	inconclusive: 29.1 µM [cytotoxic, single point]
COc1ccc(/C=C2\Sc3ccc(C(=O)NC4CC4)cc3N(C)C2=O)cc1OC	–	inconclusive: 10.3 µM [cytotoxic, partial curve, poor fit]
CCOC(=O)/C(C#N)=C/c1ccc(OC(=O)c2ccco2)c(OCC)c1	–	inconclusive: 3.26 µM [rising, partial curve]
Cc1nc2c(C(=O)NCCc3ccccc3)cnn2c(C)c1Cc1c(F)cccc1Cl	inactive: -7.3%	–
COc1ccc(C2CCCCCN2C(=O)C2CCN(S(=O)(=O)c3ccc(C)cc3)CC2)cc1 (stereo not drawn)	inactive: -12.2%	–
CNc1ccc(C=O)cc1I	–	inconclusive: 29.1 µM [rising, single point]
CC(=O)Nc1ccc(S(=O)(=O)O)c2cc(S(=O)(=O)O)c(N=Nc3ccc(N=Nc4ccc(S(=O)(=O)O)cc4)c4ccc(S(=O)(=O)O)cc34)c(O)c12	–	inconclusive: 23.1 µM [cytotoxic, single point]
COCCN1CCc2nc(SCC(=O)Nc3ccc(Br)cc3)[nH]c(=O)c2C1	inactive: 0%	–
Cc1noc(C)c1CS(=O)(=O)c1ccc(Br)cc1	–	inconclusive: 18.4 µM [cytotoxic, partial curve, poor fit]
COC(=O)N/N=C\c1ccc(-c2cc(Cl)c(Cl)cc2Cl)o1	inactive: -8.39%	–
CCOCCCNC(=O)c1cc2c(-c3ccc(OC)c(OC)c3)nn(C)c2s1	–	inconclusive: 2.31 µM [cytotoxic, single point]
CCCSc1nsc(NC(=O)Nc2ccc(F)cc2F)n1	–	inconclusive: 23.1 µM [cytotoxic, single point]
Cc1ccc(C(=O)N2C(CC(=O)Nc3ccc(Cl)cc3)C(=O)NC3CCCCC32)cc1 (stereo not drawn)	–	inconclusive: 13 µM [cytotoxic, partial curve, poor fit]

Two compounds picked at random from the list so far, as already listed:
SMILES	activity change, negative = cytotoxicity	Potency
CCCSc1nsc(NC(=O)Nc2ccc(F)cc2F)n1	–	inconclusive: 23.1 µM [cytotoxic, single point]
Cc1nc2c(C(=O)NCCc3ccccc3)cnn2c(C)c1Cc1c(F)cccc1Cl	inactive: -7.3%	–

Further records follow:

SMILES	activity change, negative = cytotoxicity	Potency
Cc1cccc(C(=O)N[C@H](C(=O)Nc2nnc(C3CC3)s2)C(C)C)c1	–	inconclusive: 8.2 µM [cytotoxic, partial curve]
O=C(CSc1nnc(-c2cccnc2)s1)Nc1ccnc2ccccc12	–	active: 1.64 µM
COc1cc(NC(=O)c2ccccc2OCc2ccccc2)cc(OC)c1OC	–	inconclusive: 16.4 µM [cytotoxic, single point]
O=C(c1ccc(F)cc1)N1CCC(C(=O)N2CCN(S(=O)(=O)c3cccc(Cl)c3)CC2)CC1	–	inconclusive: 13 µM [cytotoxic, partial curve]
COc1cccc(/C=N/NC(=O)c2cc3c(OC)cccc3[nH]2)c1O	–	inconclusive: 3.26 µM [cytotoxic, partial curve, poor fit]
Cc1noc(/C=C/N(C)C)c1S(=O)(=O)N1CCCC(C(=O)Nc2ccc(F)cc2F)C1 (stereo not drawn)	inactive: 3.28%	–
COc1ccc(NC(=O)Nc2sc3nc4n(c(=O)c3c2C)CCC(C)CC4)cc1OC (stereo not drawn)	–	inconclusive: 13 µM [rising, partial curve]
COc1ccc(NC(C)C(=O)N/N=C/c2ccccc2OCc2cccc(Br)c2)cc1 (stereo not drawn)	–	inconclusive: 29.1 µM [cytotoxic, single point]
CN(C)CCN(Cc1ccco1)C(=O)c1oc2ccccc2c1NC(=O)COc1ccccc1	–	inconclusive: 16.4 µM [rising, single point]
CN(C(=O)CSc1nc2c(c(=O)[nH]1)CCCC2)C1CCCCC1	–	active: 16.4 µM
COc1ccc(NC(=O)CSCc2cc(=O)n3ccsc3n2)cc1	inactive: 17.6%	–
CCc1ccc(NC(=O)c2ccc(-n3cncn3)c([N+](=O)[O-])c2)cc1	–	inconclusive: 18.4 µM [cytotoxic, partial curve, poor fit]
CN(Cc1ccccc1)Cc1cc(=O)oc2ccccc12	–	active: 9.2 µM
O=C(O)CN1CCCCCC1=O	–	inconclusive: 25.9 µM [rising, single point]
CCc1[nH]c(=O)[nH]c1C(C)S(=O)(=O)c1ccc(C)cc1 (stereo not drawn)	inactive: 29.7%	–
Cc1oc(-c2cccc3ccccc23)nc1CN1CCN(c2ncnc3ccccc23)CC1	–	inconclusive: 8.2 µM [cytotoxic, partial curve]
CCCCn1c(NC(=S)Nc2ccccc2)nc2ccccc21	–	inconclusive: 29.1 µM [cytotoxic, single point]
N#Cc1c(-c2ccco2)ccn(Cc2cccc(F)c2)c1=O	–	inconclusive: 29.1 µM [cytotoxic, single point]
Cc1c(C(=O)NCCSCc2ccccc2)cccc1[N+](=O)[O-]	inactive: -7.25%	–
CCOC(=O)c1ccc(NC(=O)COc2ccc(CNC3CCCCC3)cc2OC)cc1	–	inconclusive: 23.1 µM [cytotoxic, partial curve, poor fit]
COc1ccc(CC(=O)N/N=C(\C)CC(=O)Nc2cccc(F)c2)cc1	inactive: 18.6%	–
